Reference: the supplement of paper PMC12067093, “Discovery and optimisation of a covalent ligand for TRIM25 and its application to targeted protein ubiquitination” (Chemical Science, 2025)
The other results are listed elsewhere or left out.

By UniProt entry, the sequences of proteins in these tests, tags left out. Where a name states a change or a piece, a line headed by the entry shows the natural chain unless it says otherwise.
UniProt O43772: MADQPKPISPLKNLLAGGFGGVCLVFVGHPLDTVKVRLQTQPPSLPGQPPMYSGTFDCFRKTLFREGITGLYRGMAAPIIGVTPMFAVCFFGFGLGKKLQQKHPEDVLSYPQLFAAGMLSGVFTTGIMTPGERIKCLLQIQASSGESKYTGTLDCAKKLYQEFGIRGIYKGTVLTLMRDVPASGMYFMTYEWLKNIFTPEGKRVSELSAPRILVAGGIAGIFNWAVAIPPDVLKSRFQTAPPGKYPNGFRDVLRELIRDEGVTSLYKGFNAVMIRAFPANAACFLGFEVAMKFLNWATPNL
UniProt P53007, whole entry, looked up: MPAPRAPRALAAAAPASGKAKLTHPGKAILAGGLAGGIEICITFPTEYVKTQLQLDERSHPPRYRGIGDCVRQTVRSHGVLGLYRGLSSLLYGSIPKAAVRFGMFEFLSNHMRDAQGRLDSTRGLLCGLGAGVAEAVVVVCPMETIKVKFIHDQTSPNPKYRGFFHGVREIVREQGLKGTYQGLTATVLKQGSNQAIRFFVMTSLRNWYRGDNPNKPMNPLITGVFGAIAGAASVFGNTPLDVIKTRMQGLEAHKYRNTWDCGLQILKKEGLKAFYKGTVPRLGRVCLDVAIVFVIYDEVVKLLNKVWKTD
UniProt Q15393: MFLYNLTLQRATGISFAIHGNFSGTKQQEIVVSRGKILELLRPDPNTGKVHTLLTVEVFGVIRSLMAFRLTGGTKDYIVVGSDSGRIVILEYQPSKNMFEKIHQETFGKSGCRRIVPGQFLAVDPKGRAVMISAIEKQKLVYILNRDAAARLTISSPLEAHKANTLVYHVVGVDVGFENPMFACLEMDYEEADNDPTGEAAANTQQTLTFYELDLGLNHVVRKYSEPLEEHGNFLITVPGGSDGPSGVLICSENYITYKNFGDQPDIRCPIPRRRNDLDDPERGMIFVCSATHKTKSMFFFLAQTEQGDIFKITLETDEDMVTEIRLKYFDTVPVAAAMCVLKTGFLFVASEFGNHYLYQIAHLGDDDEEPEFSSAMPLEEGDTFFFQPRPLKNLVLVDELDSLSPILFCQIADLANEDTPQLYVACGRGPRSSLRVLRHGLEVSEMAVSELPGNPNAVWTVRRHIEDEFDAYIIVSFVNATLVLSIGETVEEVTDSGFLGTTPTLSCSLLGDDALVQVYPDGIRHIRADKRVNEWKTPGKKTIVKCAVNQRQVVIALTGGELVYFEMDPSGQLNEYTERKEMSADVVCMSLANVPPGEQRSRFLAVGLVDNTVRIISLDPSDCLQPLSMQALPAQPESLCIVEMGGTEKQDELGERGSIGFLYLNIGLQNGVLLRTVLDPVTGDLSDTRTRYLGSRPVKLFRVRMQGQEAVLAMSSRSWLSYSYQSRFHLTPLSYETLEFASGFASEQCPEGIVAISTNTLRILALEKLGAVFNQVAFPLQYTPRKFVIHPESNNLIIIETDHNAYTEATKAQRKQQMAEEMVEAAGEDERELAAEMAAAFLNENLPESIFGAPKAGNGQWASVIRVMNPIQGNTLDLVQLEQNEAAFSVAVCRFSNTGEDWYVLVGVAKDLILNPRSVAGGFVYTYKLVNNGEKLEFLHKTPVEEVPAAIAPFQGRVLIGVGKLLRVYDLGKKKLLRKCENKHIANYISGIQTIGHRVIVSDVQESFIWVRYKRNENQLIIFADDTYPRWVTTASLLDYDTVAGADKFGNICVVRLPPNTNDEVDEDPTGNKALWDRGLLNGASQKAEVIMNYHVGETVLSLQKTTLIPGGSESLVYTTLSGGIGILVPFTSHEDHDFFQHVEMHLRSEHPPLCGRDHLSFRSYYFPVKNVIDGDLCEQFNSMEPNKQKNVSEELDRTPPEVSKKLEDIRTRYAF
UniProt Q9UHJ6: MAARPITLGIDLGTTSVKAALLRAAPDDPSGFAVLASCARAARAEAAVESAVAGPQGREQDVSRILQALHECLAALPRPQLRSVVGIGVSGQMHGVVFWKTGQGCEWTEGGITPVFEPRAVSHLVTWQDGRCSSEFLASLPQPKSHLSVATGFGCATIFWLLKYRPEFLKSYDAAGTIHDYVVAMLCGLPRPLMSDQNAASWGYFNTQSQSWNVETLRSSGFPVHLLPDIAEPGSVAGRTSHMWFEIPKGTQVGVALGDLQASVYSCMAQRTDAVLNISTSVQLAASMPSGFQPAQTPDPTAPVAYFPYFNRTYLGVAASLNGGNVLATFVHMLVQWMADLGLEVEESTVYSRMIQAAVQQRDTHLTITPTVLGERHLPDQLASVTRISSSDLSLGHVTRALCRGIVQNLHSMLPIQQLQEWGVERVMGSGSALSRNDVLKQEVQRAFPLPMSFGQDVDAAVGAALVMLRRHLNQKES
UniProt O75746: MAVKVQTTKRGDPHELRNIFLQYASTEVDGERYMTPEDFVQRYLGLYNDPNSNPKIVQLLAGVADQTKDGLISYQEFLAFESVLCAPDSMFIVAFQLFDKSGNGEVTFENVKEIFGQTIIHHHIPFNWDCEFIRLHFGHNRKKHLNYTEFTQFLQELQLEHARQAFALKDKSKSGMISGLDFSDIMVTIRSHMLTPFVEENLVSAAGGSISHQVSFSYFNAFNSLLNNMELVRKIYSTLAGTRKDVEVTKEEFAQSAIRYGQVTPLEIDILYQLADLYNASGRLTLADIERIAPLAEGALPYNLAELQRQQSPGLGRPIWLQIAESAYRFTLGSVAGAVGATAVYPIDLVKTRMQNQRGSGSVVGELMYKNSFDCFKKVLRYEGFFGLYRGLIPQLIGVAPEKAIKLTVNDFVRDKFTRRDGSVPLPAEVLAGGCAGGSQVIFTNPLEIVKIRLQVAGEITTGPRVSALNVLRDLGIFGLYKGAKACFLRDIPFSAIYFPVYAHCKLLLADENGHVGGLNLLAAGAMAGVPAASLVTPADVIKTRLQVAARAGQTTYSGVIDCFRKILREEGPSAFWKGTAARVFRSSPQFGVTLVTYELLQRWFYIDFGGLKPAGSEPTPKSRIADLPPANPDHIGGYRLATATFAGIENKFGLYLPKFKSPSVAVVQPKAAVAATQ
UniProt Q12874: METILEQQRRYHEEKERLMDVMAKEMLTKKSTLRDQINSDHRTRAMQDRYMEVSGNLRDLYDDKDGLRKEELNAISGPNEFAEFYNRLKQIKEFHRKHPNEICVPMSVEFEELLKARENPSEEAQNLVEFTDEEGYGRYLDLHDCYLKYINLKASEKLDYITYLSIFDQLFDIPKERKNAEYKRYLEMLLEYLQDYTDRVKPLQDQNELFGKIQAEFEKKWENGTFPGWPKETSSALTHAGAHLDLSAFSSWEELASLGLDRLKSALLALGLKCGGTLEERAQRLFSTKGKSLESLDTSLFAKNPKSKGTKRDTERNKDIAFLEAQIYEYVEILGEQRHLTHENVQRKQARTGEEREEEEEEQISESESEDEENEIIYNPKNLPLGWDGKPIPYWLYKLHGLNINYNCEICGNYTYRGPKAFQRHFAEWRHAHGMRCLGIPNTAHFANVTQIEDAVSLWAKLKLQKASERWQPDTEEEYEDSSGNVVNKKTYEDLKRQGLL
UniProt P34897: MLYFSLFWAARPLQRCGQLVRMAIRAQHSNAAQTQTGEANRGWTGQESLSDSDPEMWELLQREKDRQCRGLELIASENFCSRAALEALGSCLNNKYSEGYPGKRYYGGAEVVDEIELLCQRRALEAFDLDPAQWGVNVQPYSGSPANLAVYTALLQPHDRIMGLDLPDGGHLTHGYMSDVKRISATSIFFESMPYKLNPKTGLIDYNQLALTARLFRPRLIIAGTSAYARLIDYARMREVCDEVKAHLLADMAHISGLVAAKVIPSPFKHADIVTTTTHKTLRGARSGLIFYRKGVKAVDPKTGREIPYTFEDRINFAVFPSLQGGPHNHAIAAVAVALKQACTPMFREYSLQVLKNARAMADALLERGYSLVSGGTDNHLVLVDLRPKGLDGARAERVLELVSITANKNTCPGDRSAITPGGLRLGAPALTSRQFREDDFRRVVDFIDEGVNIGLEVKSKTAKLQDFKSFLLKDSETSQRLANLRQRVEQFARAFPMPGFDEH
UniProt Q15459: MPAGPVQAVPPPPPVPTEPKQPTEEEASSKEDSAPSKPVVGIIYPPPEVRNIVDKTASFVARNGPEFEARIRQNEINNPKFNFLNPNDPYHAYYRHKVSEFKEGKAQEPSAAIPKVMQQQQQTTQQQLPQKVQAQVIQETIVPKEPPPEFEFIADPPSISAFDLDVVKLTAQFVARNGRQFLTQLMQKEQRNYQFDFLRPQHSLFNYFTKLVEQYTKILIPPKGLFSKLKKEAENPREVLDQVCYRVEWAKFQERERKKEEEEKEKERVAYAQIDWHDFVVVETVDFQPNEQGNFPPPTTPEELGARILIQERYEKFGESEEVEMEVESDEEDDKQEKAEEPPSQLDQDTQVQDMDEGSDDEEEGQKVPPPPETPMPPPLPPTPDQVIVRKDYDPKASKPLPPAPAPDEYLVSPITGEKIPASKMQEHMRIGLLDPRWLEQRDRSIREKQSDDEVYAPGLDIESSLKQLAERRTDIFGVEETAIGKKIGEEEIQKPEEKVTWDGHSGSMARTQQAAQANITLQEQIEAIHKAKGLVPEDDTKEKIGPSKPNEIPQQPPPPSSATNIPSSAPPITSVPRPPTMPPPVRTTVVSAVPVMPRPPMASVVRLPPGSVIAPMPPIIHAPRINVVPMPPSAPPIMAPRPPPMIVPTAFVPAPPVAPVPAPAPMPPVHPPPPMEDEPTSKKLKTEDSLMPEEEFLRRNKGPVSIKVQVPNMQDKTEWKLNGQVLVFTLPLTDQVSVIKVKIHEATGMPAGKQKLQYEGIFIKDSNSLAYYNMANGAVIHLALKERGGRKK
UniProt Q8TBC3: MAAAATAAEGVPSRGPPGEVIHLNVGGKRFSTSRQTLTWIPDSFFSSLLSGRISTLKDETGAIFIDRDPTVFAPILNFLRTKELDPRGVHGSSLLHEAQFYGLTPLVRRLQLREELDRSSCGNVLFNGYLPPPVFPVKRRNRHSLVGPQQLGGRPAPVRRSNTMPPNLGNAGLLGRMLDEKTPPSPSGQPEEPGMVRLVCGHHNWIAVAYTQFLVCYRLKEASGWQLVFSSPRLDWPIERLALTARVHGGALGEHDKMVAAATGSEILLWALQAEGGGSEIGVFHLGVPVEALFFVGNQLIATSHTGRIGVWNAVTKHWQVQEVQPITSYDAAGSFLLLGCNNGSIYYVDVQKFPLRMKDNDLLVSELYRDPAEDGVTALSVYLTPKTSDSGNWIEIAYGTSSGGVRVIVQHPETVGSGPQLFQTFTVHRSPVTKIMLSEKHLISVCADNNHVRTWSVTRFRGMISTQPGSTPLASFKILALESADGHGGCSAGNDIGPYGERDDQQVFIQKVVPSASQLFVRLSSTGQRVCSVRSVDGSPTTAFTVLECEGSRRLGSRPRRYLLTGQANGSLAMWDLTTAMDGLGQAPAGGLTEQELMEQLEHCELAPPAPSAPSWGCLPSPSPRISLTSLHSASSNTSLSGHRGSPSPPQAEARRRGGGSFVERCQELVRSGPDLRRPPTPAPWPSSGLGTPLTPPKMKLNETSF
UniProt Q9BRV8: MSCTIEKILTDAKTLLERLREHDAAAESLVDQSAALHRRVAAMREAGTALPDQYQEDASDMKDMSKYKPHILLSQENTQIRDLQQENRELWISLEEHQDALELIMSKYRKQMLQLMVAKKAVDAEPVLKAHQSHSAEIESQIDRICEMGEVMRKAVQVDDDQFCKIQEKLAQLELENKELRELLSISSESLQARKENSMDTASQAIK
UniProt Q5VUG0: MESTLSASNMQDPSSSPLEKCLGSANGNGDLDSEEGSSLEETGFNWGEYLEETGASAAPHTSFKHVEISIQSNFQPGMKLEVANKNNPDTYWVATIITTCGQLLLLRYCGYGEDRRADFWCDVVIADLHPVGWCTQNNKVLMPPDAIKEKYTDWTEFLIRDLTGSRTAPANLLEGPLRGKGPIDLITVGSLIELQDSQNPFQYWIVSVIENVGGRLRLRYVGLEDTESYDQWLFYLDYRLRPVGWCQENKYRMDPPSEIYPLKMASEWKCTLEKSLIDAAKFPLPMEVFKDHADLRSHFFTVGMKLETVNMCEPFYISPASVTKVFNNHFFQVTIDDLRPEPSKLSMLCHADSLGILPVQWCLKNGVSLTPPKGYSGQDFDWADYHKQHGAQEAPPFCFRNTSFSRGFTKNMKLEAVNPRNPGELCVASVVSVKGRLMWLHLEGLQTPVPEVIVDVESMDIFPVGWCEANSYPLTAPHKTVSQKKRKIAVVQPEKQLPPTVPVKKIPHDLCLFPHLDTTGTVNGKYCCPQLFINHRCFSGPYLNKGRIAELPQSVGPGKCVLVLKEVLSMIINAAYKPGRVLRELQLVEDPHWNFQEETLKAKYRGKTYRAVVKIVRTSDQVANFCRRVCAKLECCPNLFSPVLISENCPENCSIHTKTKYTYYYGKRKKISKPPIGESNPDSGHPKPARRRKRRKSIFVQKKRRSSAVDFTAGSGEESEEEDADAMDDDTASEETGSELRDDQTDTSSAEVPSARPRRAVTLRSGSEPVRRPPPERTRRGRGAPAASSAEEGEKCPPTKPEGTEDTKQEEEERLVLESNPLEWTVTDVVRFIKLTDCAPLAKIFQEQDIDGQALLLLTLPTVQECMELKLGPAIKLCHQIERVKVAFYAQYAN

Compound: CC1Cc2ccccc2N1C(=O)C1CCCN(C1)C(=O)CCl (mixture of isomers) [TRIM25 ligand 11 (diastereomer mixture)]
Test: probe-labelled cysteine peptide fold change vs DMSO (competition) (log2 fold change); higher = less target engagement (more negative = stronger competition)
Conditions: THP-1, incubation time: 4 h
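Further: competitive chemoproteomic profiling in live THP-1 cells with an iodoacetamide desthiobiotin (IA-DTB) probe, comparing probe-labelled peptide intensities in compound-treated cells against DMSO-treated controls.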

| Target | probe-labelled cysteine peptide fold change (10 µM) | probe-labelled cysteine peptide fold change (50 µM) |
| --- | --- | --- |
| SLC25A20_O43772_23_NLLAGGFGGVCLVFVGHPLDTVK (UniProt O43772) | -0.00829 | -0.057 |
| SLC25A1_P53007_141_GLLCGLGAGVAEAVVVVCPMETIK (UniProt P53007) | 0.0385 | 0.0556 |
| SETDB1_Q15047_731_GVFINTGPEFLVGCDCK (UniProt Q15047) | 0.0321 | -0.0124 |
| SF3A2_Q15428_56_NHLGSYECK (UniProt Q15428) | -0.0327 | 0.00095 |
| SKAP2_O75563_185_DCCFEISAPDKR (UniProt O75563) | -0.0767 | 0.159 |
| SF3B3_Q15393_1179_NVIDGDLCEQFNSMEPNK (UniProt Q15393) | -0.138 | -0.255 |
| SHPK_Q9UHJ6_187_SYDAAGTIHDYVVAMLCGLPR (UniProt Q9UHJ6) | 0.148 | 0.0926 |
| SF3B1_O75533_965_TCQEEK (UniProt O75533) | 0.128 | 0.134 |
| SIN3A_Q96ST3_1063_KAEQLMSDENCFK (UniProt Q96ST3) | -0.0204 | 0.0248 |
| SHPK_Q9UHJ6_132_CSSEFLASLPQPK (UniProt Q9UHJ6) | -0.114 | -0.0558 |
| SERBP1_Q8NC51_11_PGHLQEGFGCVVTNR (UniProt Q8NC51) | 0.103 | -0.191 |
| SERBP1_Q8NC51_11_PGHLQEGFGCVVTNRFDQLFDDESDPFEVLK (UniProt Q8NC51) | -0.323 | -0.648 |
| SEPT2_Q15019_148_VHCCFYFISPFGHGLKPLDVAFMK (UniProt Q15019) | 0.0639 | 0.119 |
| SIAE_Q9HAT2_367_MPNTFMAVAMDLCDRDSPFGSIHPR (UniProt Q9HAT2) | -0.176 | -0.565 |
| SLAIN2_Q9P270_152_SVSPLVWCR (UniProt Q9P270) | -0.284 | -0.326 |
| SIN3A_Q96ST3_425_PQRPSQNGCQIR (UniProt Q96ST3) | -0.0855 | 0.127 |
| SEPT2_Q15019_149_VHCCFYFISPFGHGLKPLDVAFMK (UniProt Q15019) | 0.0874 | -0.0957 |
| SEPT5_Q99719_193_ADCLVPSEIR (UniProt Q99719) | -0.096 | -0.0753 |
| SERPINB8_P50452_128_FYQAELEELSFAEDTEECR (UniProt P50452) | 0.305 | 0.0573 |
| SLC25A12_O75746_130_EIFGQTIIHHHIPFNWDCEFIR (UniProt O75746) | 0.209 | 0.129 |
| SHPRH_Q149N8_1229_NVIESATVCHLRPAR (UniProt Q149N8) | 0.0468 | 0.000376 |

| Target | probe-labelled cysteine peptide fold change (10 µM) | probe-labelled cysteine peptide fold change (50 µM) |
| --- | --- | --- |
| SETX_Q7Z333_1398_AGSHTAQNSDIFVPESDRSDYNCTGGTEVLANSNR (UniProt Q7Z333) | -0.136 | -0.652 |
| SETX_Q7Z333_688_LEDHLLAGSCLK (UniProt Q7Z333) | 0.0862 | -0.131 |
| SF3A3_Q12874_103_KHPNEICVPMSVEFEELLK (UniProt Q12874) | 0.0381 | -0.0958 |
| SETX_Q7Z333_2384+2389_DCVIVTCVR (UniProt Q7Z333) | 0.0808 | 0.176 |
| SLC17A5_Q9NRA2_83_ACPEHSAPIK (UniProt Q9NRA2) | 0.0365 | 0.073 |
| SHMT2_P34897_241_EVCDEVK (UniProt P34897) | 0.0438 | 0.123 |
| SF3A3_Q12874_145_YLDLHDCYLK (UniProt Q12874) | 0.0138 | 0.0212 |
| SGO1_Q5FBB7_44_SFIAAPCQIITNTSTLLK (UniProt Q5FBB7) | 0.065 | -0.237 |
| SLAIN1_Q8ND83_313_KGTCSDQEYDQYSLEDEEEFDHLPPPQPR (UniProt Q8ND83) | -0.084 | -0.0386 |
| SIPA1_Q96FS4_467_AHTPCTPHTTYR (UniProt Q96FS4) | 0.187 | 0.0943 |
| SEPT9_Q9UHD8_531_TKWGTIEVENTTHCEFAYLR (UniProt Q9UHD8) | -0.28 | -0.248 |
| SHMT2_P34897_119_RYYGGAEVVDEIELLCQR (UniProt P34897) | -0.108 | 0.145 |
| SETD2_Q9BYW2_2532_NPEDLECNENVK (UniProt Q9BYW2) | 0.0467 | 0.419 |
| SH3RF1_Q7Z6J0_93_QRPWKPGPGGGSGTNCTNALR (UniProt Q7Z6J0) | -0.0835 | -0.203 |
| SF3B3_Q15393_1054_FGNICVVR (UniProt Q15393) | 0.145 | 0.173 |
| SLC25A12_O75746_563_AGQTTYSGVIDCFR (UniProt O75746) | 0.231 | 0.00781 |
| SH3GL1_Q99961_96_NPGYPQSEGLLGECMIR (UniProt Q99961) | -0.0238 | -0.243 |
| SETD7_Q8WTS6_303_ANHSFTPNCIYDMFVHPR (UniProt Q8WTS6) | 0.0776 | 0.0787 |
| SLC25A10_Q9UBX3_22+23_WYFGGLASCGAACCTHPLDLLK (UniProt Q9UBX3) | 0.136 | 0.171 |
| SF3A1_Q15459_244_EAENPREVLDQVCYR (UniProt Q15459) | -0.127 | -0.15 |
| SKP2_Q13309_327_NDCFQEFFQLNYLQHLSLSR (UniProt Q13309) | -0.129 | -0.282 |

| Target | probe-labelled cysteine peptide fold change (10 µM) | probe-labelled cysteine peptide fold change (50 µM) |
| --- | --- | --- |
| SH3PXD2B_A1X283_115_ALIQLPPYISQCDEVLQFFETRPEDLNPPKEEHIGK (UniProt A1X283) | -0.32 | -0.311 |
| SEPT11_Q9NVA2_150_IHACLYFIAPTGHSLK (UniProt Q9NVA2) | -0.152 | 0.021 |
| SIL1_Q9H173_379_QVHLLPGLWEQGWCEITAHLLALPEHDAR (UniProt Q9H173) | 0.0151 | 0.218 |
| SIGIRR_Q6IA17_174_LYDAYVSYSDCPEDR (UniProt Q6IA17) | 0.24 | -0.151 |
| SHTN1_A0MZ66_442_GCESAVDELK (UniProt A0MZ66) | -0.0874 | -0.107 |
| SETX_Q7Z333_1656_NSCNVLHPQSPNNSNR (UniProt Q7Z333) | 0.0238 | -0.178 |
| SHOC2_Q9UQ13_260_EIGNCTQITNLDLQHNELLDLPDTIGNLSSLSR (UniProt Q9UQ13) | -0.206 | 0.0115 |
| SLC25A3_Q00325-2_75_YYALCGFGGVLSCGLTHTAVVPLDLVK (UniProt Q00325) | -0.0599 | -0.0437 |
| SHKBP1_Q8TBC3_447_HLISVCADNNHVR (UniProt Q8TBC3) | -0.0257 | 0.131 |
| SLC25A1_P53007_127+141_GLLCGLGAGVAEAVVVVCPMETIK (UniProt P53007) | 0.12 | 0.061 |
| SKA3_Q8IX90_147_TDVKDDLSDPPVASSCISEK (UniProt Q8IX90) | -0.288 | -0.238 |
| SKAP2_O75563_186_DCCFEISAPDK (UniProt O75563) | 0.239 | 0.128 |
| SHMT2_P34897_80_GLELIASENFCSR (UniProt P34897) | 0.148 | 0.179 |
| SH3KBP1_Q96B97_103_CQVAFSYLPQNDDELELK (UniProt Q96B97) | -0.3 | 0.0322 |
| SIKE1_Q9BRV8_164_AVQVDDDQFCK (UniProt Q9BRV8) | 0.0279 | 0.0525 |
| SEPT3_Q9UH03_295_KTPWGIIEVENLNHCEFALLR (UniProt Q9UH03) | -0.0858 | -0.28 |
| SLC25A20_O43772_136_CLLQIQASSGESK (UniProt O43772) | -0.0132 | 0.0621 |
| SEPT2_Q15019_111_LTVVDTPGYGDAINCR (UniProt Q15019) | 0.232 | 0.115 |
| SEPT6_Q14141_301_CKLEEMGFK (UniProt Q14141) | -0.133 | -0.178 |
| SHKBP1_Q8TBC3_491_ILALESADGHGGCSAGNDIGPYGER (UniProt Q8TBC3) | 0.00985 | -0.0671 |
| SF3A1_Q15459_244_EVLDQVCYR (UniProt Q15459) | -0.0708 | -0.0869 |

| Target | probe-labelled cysteine peptide fold change (10 µM) | probe-labelled cysteine peptide fold change (50 µM) |
| --- | --- | --- |
| SIRT1_Q96EB6_574_GCMEEKPQEVQTSR (UniProt Q96EB6) | -0.213 | -0.285 |
| SF1_Q15637_292_CGGAGHIASDCK (UniProt Q15637) | 0.0115 | 0.0404 |
| SKIV2L_Q15477_1014_KLEELIQGAQCVHSPR (UniProt Q15477) | 0.014 | -0.00798 |
| SLC25A22_Q9H936_116_EMLAGCGAGTCQVIVTTPMEMLK (UniProt Q9H936) | 0.181 | 0.173 |
| SESN1_Q9Y6P5_286_QLQECRDEEEASQEEMASR (UniProt Q9Y6P5) | -0.00479 | -0.0495 |
| SLC25A36_Q96CQ1_67_VVSPGPLHCLK (UniProt Q96CQ1) | 0.114 | 0.127 |
| SIN3A_Q96ST3_425_KPQLNNKPQRPSQNGCQIR (UniProt Q96ST3) | -0.14 | -0.255 |
| SGO2_Q562F6_798_HGHDMQPACQNDSK (UniProt Q562F6) | -0.0181 | -0.296 |
| SFMBT2_Q5VUG0_560_CVLVLK (UniProt Q5VUG0) | -0.203 | 0.0554 |
| SLC19A1_P41440_220_CETSASELER (UniProt P41440) | 0.0189 | -0.108 |
| SHC1_P29353-6_416_QMPPPPPCPAGR (UniProt P29353) | -0.0913 | -0.421 |
| SIRPA_P78324_228_EDVHSQVICEVAHVTLQGDPLR (UniProt P78324) | -0.244 | 0.114 |
| SETD1B_Q9UPS6_1908_FINHSCNPNCYAK (UniProt Q9UPS6) | 0.121 | 0.178 |
| SF3B1_O75533_1035_VQENCIDLVGR (UniProt O75533) | -0.0917 | 0.101 |
| SF3B3_Q15393_1156_SEHPPLCGR (UniProt Q15393) | 0.115 | -0.108 |
| SIRT2_Q8IXJ6_164_CYTQNIDTLER (UniProt Q8IXJ6) | 0.00114 | -0.0419 |
| SFMBT2_Q5VUG0_426_NPGELCVASVVSVK (UniProt Q5VUG0) | 0.309 | 0.165 |
| SLC1A5_Q15758_39_GLAAAEPTANGGLALASIEDQGAAAGGYCGSR (UniProt Q15758) | -0.241 | -0.199 |
| SETD3_Q86TU7_36_CSSPAPGPGK (UniProt Q86TU7) | -0.0972 | -0.145 |
